Data as given in the supplement of paper PMC7666118.
The list shows a part of the results.

The chains behind the UniProt entries cited, without tags or fusion partners. Where a name states a change or a piece, a line headed by the entry shows the natural chain unless it says otherwise.
UniProt Q659C4: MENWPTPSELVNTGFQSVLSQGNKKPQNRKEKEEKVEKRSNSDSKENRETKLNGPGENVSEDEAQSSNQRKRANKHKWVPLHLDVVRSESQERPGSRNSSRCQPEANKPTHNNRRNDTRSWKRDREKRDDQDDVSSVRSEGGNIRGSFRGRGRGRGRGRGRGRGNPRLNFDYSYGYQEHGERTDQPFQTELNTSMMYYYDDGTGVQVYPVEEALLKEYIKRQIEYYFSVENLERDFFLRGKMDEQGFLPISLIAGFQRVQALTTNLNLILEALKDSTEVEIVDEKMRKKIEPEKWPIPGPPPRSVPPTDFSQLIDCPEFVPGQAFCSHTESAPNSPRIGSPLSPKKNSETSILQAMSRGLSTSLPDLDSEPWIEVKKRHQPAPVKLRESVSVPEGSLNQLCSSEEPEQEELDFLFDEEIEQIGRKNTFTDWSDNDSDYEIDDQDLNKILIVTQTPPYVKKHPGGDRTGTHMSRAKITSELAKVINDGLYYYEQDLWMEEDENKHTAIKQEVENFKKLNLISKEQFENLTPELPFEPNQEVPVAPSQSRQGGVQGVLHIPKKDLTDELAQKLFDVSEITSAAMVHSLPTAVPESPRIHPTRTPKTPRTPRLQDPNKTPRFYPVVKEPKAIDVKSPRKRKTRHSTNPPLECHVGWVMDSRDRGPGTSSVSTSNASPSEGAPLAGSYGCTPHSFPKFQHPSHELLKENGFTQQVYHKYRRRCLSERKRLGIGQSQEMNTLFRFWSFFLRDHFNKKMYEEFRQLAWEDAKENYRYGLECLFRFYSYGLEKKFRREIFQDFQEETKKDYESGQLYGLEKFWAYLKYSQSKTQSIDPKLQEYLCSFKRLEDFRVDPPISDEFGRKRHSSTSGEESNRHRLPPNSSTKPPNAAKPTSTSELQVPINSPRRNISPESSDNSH
UniProt Q9UIQ6, whole entry: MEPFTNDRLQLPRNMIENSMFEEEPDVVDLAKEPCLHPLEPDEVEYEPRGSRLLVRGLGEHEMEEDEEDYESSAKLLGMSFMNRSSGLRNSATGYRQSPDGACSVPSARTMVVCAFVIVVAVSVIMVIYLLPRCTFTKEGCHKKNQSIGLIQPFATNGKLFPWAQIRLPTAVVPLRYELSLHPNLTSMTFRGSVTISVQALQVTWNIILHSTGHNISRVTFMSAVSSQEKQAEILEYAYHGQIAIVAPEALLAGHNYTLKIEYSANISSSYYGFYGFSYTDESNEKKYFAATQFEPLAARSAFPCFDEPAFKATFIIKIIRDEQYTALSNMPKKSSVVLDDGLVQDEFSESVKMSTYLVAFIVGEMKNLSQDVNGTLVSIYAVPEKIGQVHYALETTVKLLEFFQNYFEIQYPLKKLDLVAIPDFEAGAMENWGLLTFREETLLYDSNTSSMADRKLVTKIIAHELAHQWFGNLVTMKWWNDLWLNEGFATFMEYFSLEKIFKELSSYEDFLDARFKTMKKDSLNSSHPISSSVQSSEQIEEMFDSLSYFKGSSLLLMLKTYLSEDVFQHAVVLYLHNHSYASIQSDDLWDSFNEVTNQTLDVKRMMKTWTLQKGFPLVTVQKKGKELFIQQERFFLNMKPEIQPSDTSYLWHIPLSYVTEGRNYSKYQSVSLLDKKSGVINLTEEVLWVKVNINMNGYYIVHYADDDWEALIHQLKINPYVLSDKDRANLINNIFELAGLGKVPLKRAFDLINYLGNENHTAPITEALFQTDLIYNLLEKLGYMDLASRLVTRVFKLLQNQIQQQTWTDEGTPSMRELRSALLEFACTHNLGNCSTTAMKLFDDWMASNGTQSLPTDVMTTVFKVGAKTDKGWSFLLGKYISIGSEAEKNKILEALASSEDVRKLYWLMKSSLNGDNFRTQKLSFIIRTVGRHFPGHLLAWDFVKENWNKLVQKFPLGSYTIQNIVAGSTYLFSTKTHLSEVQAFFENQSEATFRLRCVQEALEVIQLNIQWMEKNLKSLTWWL
UniProt Q8NBL1: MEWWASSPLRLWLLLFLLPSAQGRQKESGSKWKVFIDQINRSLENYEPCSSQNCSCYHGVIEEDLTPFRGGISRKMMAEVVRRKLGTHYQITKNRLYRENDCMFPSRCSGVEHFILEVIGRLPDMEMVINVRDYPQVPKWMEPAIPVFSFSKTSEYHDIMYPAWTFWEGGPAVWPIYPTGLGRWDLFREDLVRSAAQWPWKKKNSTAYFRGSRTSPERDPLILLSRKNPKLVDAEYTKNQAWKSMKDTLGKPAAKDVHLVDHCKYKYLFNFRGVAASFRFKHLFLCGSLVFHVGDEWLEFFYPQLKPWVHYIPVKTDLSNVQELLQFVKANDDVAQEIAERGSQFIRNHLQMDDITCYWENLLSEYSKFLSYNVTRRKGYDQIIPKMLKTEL
UniProt Q5VWZ2: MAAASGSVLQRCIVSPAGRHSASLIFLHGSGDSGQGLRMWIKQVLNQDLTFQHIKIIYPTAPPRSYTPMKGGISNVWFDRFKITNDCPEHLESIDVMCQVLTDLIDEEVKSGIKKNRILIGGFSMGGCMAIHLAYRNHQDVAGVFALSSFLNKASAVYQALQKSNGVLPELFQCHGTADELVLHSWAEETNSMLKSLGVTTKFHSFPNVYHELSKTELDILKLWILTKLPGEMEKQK
UniProt Q6ZMG9: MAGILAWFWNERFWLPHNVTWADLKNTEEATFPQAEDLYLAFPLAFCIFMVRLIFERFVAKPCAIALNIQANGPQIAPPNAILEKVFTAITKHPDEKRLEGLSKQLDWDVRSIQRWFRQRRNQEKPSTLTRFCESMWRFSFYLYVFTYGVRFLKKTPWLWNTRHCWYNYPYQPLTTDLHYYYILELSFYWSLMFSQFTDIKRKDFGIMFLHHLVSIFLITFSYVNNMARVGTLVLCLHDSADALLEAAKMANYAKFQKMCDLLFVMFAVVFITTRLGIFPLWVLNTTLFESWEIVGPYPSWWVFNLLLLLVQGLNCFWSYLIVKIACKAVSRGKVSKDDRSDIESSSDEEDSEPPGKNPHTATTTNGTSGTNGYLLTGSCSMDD
UniProt P53667: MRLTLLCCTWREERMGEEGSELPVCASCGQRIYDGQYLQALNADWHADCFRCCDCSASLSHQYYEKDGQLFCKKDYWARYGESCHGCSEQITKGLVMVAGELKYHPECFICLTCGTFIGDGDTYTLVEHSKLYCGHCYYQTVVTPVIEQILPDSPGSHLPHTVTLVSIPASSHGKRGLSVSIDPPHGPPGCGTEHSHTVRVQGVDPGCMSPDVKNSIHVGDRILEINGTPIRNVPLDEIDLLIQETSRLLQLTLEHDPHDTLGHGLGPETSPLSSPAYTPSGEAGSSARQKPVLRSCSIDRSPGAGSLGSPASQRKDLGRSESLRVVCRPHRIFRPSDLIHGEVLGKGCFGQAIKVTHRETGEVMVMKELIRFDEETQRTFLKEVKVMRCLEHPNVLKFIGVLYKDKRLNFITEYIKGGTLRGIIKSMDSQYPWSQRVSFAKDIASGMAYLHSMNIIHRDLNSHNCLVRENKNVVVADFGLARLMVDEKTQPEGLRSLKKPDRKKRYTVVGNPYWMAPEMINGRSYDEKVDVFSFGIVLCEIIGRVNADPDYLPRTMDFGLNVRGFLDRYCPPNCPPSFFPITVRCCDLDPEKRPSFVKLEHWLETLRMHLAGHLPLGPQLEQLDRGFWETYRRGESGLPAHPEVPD
UniProt O95202: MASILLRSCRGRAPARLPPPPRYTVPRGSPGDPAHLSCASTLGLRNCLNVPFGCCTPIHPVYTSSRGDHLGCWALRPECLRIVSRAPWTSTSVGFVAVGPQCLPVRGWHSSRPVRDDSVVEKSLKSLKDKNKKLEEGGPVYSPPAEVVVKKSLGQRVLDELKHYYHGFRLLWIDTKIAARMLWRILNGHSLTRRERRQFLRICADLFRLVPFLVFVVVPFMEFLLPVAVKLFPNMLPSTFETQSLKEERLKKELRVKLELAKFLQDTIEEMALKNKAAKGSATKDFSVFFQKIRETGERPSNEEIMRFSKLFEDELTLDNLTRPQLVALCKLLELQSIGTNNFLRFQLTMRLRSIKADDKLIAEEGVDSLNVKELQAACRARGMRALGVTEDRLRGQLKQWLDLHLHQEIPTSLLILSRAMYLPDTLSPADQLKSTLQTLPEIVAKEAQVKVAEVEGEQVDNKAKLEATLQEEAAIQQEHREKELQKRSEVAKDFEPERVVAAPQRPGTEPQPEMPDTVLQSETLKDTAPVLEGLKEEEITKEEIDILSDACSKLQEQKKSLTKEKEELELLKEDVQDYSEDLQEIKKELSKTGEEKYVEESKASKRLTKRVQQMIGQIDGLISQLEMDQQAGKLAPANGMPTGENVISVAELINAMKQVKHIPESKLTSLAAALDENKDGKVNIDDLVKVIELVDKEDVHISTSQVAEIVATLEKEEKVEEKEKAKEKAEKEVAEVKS
UniProt Q13094: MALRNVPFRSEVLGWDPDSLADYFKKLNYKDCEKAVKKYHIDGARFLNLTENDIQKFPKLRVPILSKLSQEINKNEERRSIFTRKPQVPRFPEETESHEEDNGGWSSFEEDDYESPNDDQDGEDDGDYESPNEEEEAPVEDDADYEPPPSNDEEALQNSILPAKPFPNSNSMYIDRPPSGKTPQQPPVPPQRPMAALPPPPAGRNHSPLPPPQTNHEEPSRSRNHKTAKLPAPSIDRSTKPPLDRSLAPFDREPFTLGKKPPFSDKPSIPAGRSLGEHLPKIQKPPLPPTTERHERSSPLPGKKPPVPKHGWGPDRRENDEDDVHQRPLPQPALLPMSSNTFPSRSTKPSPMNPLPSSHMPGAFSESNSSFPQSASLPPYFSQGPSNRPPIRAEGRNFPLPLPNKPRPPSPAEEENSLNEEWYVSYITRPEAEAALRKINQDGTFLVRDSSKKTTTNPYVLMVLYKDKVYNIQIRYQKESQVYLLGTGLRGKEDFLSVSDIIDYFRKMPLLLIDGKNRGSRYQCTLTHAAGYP
UniProt Q9UFC0: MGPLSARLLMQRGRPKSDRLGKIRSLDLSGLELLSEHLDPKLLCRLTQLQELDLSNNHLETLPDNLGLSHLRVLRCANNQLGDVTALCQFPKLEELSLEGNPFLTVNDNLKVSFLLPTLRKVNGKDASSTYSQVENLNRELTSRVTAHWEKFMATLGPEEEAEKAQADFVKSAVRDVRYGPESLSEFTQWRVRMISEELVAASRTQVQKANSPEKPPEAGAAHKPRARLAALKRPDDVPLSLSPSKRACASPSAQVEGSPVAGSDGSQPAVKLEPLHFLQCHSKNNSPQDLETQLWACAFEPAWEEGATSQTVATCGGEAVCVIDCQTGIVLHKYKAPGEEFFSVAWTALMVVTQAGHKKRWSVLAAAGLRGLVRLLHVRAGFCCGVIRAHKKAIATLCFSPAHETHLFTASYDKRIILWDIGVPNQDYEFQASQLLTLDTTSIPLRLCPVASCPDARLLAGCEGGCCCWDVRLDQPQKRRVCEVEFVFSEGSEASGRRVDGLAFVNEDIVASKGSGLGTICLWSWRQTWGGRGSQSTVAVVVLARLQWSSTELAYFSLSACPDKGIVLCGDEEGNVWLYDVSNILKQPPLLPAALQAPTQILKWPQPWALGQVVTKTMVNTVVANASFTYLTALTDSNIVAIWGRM
UniProt Q53H82: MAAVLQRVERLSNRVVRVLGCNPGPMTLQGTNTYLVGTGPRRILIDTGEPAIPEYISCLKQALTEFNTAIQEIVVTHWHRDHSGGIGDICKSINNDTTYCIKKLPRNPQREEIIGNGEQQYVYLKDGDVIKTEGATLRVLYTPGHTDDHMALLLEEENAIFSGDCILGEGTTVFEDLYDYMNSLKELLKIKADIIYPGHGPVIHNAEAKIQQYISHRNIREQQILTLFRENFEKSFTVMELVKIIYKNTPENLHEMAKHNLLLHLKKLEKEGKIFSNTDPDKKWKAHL
UniProt Q32P28: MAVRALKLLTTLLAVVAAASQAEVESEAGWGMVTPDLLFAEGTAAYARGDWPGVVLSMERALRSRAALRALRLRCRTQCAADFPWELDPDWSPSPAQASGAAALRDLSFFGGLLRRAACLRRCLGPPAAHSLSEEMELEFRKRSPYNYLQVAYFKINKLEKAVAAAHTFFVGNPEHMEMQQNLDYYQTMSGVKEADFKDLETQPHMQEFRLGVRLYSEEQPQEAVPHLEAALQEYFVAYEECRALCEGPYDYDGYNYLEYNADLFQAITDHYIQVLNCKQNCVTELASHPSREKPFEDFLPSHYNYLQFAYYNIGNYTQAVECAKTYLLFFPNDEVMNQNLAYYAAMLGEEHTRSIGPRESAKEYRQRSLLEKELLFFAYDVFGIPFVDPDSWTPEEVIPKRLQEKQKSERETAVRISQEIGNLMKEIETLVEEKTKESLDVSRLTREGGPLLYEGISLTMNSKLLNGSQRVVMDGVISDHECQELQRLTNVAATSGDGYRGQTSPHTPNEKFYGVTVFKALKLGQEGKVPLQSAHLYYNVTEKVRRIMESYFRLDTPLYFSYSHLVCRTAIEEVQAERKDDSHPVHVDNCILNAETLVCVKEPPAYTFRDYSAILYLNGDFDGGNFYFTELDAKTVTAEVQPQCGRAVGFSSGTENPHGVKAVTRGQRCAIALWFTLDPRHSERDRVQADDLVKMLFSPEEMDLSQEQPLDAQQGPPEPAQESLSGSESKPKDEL

Compound: COc1ccc(Cn2ccc3cc(C)c(C(=O)NO)cc32)cc1
Assay: dose-dependent thermal stabilisation call (2D-TPP, DLPTP, 10% FDR) (binary (1 = stabilised)); higher = stabilised by the compound
Conditions: system: HL-60 intact cells; concentration range 0.04-10 µM
Procedure: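 2D thermal proteome profiling in intact HL-60 cells treated with BRD-3811 (0, 0.04, 0.29, 2, 10 uM) for 90 min at 37 C, then heated 3 min at one of 12 temperatures (42-63.9 C). Soluble protein was quantified by TMT10 MS. The value is the DLPTP call of the paper: dose-dependent thermal stabilisation over all temperatures at 10% FDR (F-test of a dose-response against a flat model); one experiment, one call per tested protein.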

Target | dose-dependent thermal stabilisation call
KTN1 (UniProt Q86UP2) | inactive: 0
MCM2 (UniProt P49736) | inactive: 0
LGTN (UniProt P41214) | inactive: 0
LARP2 (UniProt Q659C4) | inactive: 0
LOC153364 | inactive: 0
LPXN (UniProt O60711) | inactive: 0
MAPKAPK3 (UniProt Q16644) | inactive: 0
LSD1 (UniProt O60341) | inactive: 0
LMBRD1 (UniProt Q9NUN5) | inactive: 0
LNPEP (UniProt Q9UIQ6) | inactive: 0
LARP4 (UniProt Q71RC2) | inactive: 0
KTELC1 (UniProt Q8NBL1) | inactive: 0
LYPLAL1 (UniProt Q5VWZ2) | inactive: 0
ME2 (UniProt P23368) | active: 1
MAT2B (UniProt Q9NZL9) | inactive: 0
LASS6 (UniProt Q6ZMG9) | inactive: 0
LIMK1 (UniProt P53667) | inactive: 0
LETM1 (UniProt O95202) | inactive: 0

Target | dose-dependent thermal stabilisation call
LRRC20 (UniProt Q8TCA0) | inactive: 0
LCP2 (UniProt Q13094) | inactive: 0
LRCH1 (UniProt Q9Y2L9) | inactive: 0
MAN2A1 (UniProt Q16706) | inactive: 0
LRWD1 (UniProt Q9UFC0) | inactive: 0
LOC100133916 | inactive: 0
LSM1 (UniProt O15116) | inactive: 0
LRRFIP1 (UniProt Q32MZ4) | inactive: 0
LPCAT4 (UniProt Q643R3) | inactive: 0
MAPRE1 (UniProt Q15691) | inactive: 0
LBR (UniProt Q14739) | inactive: 0
LACTB2 (UniProt Q53H82) | inactive: 0
LYSMD1 (UniProt Q96S90) | inactive: 0
LOC283951 | inactive: 0
LIMA1 (UniProt Q9UHB6) | inactive: 0
LEPRE1 (UniProt Q32P28) | inactive: 0
LOC727762 | inactive: 0
LONP1 (UniProt P36776) | inactive: 0

Random excerpt: two records from the list
Target | dose-dependent thermal stabilisation call
LRWD1 (UniProt Q9UFC0) | inactive: 0
LRCH1 (UniProt Q9Y2L9) | inactive: 0
